Some of the results follow.

The chains behind the UniProt entries cited, without tags or fusion partners. Where a name states a change or a piece, a line headed by the entry shows the natural chain unless it says otherwise.
UniProt Q5PRF9: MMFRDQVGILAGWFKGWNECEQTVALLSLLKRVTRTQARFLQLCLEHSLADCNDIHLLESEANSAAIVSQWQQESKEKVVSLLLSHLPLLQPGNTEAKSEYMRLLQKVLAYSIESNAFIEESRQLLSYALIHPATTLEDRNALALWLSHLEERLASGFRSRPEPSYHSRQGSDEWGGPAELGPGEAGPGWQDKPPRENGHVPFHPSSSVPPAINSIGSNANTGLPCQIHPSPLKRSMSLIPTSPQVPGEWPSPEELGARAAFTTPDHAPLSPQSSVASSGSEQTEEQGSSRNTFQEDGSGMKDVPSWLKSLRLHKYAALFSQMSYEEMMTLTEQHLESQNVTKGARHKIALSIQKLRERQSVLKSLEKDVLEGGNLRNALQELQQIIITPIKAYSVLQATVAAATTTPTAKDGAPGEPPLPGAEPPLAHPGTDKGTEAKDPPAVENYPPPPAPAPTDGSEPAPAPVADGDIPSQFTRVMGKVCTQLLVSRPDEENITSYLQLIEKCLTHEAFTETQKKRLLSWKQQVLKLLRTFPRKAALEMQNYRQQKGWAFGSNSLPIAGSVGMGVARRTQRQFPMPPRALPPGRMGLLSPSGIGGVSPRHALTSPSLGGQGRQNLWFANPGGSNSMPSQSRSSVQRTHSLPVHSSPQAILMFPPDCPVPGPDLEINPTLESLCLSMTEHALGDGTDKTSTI
UniProt O00560: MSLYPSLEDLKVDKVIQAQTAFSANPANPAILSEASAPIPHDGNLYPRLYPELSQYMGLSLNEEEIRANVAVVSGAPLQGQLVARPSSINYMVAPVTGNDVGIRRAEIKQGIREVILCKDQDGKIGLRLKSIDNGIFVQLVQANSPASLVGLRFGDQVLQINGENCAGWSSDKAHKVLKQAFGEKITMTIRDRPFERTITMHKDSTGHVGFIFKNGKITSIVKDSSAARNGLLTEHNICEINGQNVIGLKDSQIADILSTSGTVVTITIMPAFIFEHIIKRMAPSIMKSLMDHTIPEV
UniProt Q9NPB0: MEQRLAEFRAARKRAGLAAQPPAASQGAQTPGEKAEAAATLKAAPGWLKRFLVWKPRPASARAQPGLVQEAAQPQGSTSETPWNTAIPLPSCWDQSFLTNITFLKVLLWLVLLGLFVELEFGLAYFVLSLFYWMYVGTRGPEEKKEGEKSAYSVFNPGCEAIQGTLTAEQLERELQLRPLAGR
UniProt Q9HCY8: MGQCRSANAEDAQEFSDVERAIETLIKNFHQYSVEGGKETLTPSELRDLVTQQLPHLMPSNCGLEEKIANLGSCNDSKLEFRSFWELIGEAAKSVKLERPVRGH
UniProt Q13296: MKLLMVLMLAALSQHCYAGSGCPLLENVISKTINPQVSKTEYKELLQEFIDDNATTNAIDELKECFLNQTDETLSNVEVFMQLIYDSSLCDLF
UniProt Q99470: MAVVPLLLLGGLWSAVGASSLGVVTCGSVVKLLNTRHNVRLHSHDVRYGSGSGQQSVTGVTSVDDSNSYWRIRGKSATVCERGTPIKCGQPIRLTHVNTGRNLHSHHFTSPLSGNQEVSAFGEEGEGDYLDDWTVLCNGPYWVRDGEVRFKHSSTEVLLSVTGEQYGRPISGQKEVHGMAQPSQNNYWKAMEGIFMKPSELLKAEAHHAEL
UniProt O95486: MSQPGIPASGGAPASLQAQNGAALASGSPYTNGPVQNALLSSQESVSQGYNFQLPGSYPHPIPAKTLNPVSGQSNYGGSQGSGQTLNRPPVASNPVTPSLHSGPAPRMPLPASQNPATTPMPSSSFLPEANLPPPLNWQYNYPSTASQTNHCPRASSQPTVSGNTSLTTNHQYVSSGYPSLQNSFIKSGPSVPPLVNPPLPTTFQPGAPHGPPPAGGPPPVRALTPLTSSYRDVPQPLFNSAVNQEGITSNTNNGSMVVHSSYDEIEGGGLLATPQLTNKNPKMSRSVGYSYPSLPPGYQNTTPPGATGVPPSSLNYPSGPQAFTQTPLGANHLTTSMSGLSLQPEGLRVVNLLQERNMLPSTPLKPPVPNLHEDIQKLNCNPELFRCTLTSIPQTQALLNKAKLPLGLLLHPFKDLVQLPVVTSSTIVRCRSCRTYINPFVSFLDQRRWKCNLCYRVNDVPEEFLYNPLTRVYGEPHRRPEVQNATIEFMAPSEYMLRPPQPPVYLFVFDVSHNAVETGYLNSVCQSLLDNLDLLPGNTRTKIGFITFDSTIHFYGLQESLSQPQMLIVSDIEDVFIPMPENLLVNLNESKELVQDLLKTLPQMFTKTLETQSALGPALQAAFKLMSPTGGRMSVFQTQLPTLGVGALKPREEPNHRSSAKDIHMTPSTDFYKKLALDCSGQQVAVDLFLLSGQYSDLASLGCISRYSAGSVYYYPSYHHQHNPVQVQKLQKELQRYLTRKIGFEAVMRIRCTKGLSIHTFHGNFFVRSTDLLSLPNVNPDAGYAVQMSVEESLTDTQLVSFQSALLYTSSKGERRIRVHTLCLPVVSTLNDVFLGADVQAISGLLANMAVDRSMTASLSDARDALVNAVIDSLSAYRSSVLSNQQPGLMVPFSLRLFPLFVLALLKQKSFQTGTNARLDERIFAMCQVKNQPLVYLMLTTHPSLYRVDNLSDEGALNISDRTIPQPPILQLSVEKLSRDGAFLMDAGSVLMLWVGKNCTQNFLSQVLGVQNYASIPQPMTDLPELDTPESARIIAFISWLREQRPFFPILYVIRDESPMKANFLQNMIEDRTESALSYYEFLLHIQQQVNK
UniProt Q9BWG6: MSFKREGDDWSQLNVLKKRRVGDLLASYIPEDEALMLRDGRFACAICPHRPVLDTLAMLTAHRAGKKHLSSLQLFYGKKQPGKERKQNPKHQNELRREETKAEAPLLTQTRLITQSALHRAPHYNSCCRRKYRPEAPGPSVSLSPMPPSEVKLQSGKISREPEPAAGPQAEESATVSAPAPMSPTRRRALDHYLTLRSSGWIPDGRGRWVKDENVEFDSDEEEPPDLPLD
UniProt Q01196, whole entry, looked up: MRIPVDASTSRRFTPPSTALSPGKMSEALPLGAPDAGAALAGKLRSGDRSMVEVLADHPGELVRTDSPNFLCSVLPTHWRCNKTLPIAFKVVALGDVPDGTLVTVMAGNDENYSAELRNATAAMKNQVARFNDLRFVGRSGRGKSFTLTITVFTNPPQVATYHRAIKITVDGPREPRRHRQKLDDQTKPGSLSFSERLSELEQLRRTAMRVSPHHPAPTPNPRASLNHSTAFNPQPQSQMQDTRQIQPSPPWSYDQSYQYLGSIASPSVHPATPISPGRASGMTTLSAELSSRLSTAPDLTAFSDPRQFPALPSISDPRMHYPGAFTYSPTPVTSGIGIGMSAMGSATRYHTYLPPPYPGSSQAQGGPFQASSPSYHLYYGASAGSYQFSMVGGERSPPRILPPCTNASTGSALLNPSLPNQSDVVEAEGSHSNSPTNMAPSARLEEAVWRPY
UniProt Q5VUM1: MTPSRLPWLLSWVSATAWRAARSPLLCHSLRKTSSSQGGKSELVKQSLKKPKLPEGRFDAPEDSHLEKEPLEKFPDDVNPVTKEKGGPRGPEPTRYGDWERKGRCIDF
UniProt Q96FQ6: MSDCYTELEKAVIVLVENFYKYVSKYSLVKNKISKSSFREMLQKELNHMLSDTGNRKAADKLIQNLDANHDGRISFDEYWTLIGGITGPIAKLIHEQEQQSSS
UniProt O14828: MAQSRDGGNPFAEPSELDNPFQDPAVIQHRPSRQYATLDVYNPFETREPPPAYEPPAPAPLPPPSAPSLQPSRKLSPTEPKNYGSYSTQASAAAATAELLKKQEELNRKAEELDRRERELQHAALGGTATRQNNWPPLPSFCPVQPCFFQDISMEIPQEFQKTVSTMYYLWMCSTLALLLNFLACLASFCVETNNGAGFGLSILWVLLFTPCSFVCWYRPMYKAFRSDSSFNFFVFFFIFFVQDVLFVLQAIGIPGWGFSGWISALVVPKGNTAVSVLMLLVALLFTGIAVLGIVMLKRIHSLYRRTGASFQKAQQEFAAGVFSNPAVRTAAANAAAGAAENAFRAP
UniProt Q96IW7: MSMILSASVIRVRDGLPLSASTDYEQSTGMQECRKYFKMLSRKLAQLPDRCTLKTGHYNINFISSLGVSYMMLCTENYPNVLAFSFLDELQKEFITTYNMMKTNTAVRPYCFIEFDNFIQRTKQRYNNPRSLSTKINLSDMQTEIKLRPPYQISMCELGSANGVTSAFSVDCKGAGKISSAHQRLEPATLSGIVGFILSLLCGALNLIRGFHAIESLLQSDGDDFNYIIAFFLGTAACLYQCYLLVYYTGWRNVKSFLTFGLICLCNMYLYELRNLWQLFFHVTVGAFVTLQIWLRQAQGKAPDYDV
UniProt P60903, whole entry, looked up: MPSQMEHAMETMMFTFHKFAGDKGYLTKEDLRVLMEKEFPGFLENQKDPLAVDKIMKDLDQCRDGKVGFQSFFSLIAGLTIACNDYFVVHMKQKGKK
UniProt Q99643: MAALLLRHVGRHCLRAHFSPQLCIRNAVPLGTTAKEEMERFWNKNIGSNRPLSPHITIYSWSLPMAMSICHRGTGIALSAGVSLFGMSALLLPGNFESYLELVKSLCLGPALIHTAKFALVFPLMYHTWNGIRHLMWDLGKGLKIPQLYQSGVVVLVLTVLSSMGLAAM
UniProt Q15436: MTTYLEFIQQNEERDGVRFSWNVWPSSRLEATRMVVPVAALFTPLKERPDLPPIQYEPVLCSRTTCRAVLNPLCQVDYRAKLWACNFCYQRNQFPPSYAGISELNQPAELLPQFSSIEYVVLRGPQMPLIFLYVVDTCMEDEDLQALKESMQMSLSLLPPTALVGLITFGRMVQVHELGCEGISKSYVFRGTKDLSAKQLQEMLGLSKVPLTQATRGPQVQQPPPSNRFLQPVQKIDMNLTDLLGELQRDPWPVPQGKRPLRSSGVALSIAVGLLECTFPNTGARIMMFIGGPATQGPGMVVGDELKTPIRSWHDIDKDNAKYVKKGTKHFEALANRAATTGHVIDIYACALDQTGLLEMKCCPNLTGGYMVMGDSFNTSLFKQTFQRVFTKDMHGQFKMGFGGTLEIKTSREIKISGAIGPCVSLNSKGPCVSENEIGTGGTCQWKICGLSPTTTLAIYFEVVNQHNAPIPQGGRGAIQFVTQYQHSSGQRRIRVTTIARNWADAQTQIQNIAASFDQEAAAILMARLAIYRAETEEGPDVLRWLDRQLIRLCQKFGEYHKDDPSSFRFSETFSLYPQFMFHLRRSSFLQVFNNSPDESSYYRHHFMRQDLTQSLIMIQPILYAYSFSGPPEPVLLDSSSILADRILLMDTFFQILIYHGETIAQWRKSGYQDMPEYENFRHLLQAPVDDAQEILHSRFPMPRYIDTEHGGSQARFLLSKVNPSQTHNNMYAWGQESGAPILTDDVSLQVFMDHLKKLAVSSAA

Compound in the assay: C1=CC=C(C=C1)[C@H](COC2=CC3=C(C=C2)NC(=O)N3)NC(=O)C4=CC=CN(C4=O)CC5=CC(=C(C=C5)F)F
Nature of the assay: log2 fold change, soluble protein after heating vs DMSO (PISA); higher = thermal stabilisation; K562 cells, 10 uM, 30 min; active = over 0.2 and 3.5 SD of the protein, either way, in both replicates (recomputed). Put shortly:
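K562 cells at 2×10^6 cells/mL were given 10 μM compound for 30 min. Aliquots then went through 3 min of heating across 48°C-58°C, were pooled, and were extracted in PBS with 0.5% NP-40 at 4°C, and the supernatant after 21,000xg for 90 min was quantified by TMTpro 16plex LC-MS/MS with channel sums equalised. Thermal stability relative to control samples, from duplicates, is given as log2 fold change.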
Regarding SAE1 (UniProt M0R286), the log2 fold change is inactive: -0.08.
For SAMD4B (UniProt Q5PRF9), the log2 fold change is inactive: 0.107.
On to SDCBP isoform 2 (UniProt O00560), for which the log2 fold change was inactive: -0.08.
To SAYSD1 (UniProt Q9NPB0) belongs inactive: -0.043.
To S100A14 (UniProt Q9HCY8) belongs inactive: -0.042; to RSL24D1 (UniProt Q9UHA3), inactive: 0.117.
As to SCGB2A2 (UniProt Q13296), the log2 fold change was inactive: -0.23.
For the target SDF2 (UniProt Q99470), the log2 fold change was inactive: 0.272.
To SEC24A (UniProt O95486) belongs inactive: -0.022.
For S100A6 (UniProt P06703), the log2 fold change is inactive: -0.019.
As to SCNM1 (UniProt Q9BWG6), the log2 fold change is inactive: 0.055.
As to RUNX1 isoform 8 (UniProt Q01196), the log2 fold change was inactive: -0.042.
With SDHAF4 (UniProt Q5VUM1), the log2 fold change was inactive: 0.053.
As to S100A16 (UniProt Q96FQ6), the log2 fold change is inactive: 0.193.
Take SDHB, A0A087WWT1: the log2 fold change is inactive: 0.018.
Regarding SDAD1 (UniProt Q9NVU7), the log2 fold change was inactive: -0.052.
SCAMP3 isoform 2 (UniProt O14828): the log2 fold change was inactive: 0.09.
Turning to SEC22A (UniProt Q96IW7), the log2 fold change is inactive: -0.03.
With S100A10 (UniProt P60903), the log2 fold change is inactive: 0.651.
Consider SDHB, A0A087WXX8, for which the log2 fold change is inactive: -0.05.
For the target SDHC (UniProt Q99643), the log2 fold change was inactive: -0.052.
In the case of SEC23A (UniProt Q15436), the log2 fold change was inactive: 0.006.

The values are drawn from the supplement of paper PMC10849652.
